We go through 1 molecule from publication PMC4624963, “Enzymatic Characterization of Recombinant Food Vacuole Plasmepsin 4 from the Rodent Malaria Parasite Plasmodium berghei” (PLoS ONE, 2015).

Chains of the proteins cited; added tags and fusions are not shown. Residues count along the entry.
UniProt P39898, residues 124-452: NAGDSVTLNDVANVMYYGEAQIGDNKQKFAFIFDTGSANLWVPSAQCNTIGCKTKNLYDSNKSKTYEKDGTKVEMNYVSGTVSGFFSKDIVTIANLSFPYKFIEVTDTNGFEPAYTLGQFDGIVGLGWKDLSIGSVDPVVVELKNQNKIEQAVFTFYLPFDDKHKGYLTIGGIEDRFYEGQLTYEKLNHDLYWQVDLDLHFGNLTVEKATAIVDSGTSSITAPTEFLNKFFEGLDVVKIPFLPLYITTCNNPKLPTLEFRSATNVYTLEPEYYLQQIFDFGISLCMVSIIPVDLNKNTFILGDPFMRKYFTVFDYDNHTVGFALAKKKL

In the assay the target is plasmepsin 1 from Plasmodium falciparum (Plasmodium falciparum) (UniProt P39898). Nature of the assay: enzyme inhibition kinetics (Ki of competitive inhibition); initial cleavage velocities of a chromogenic peptide substrate at varied inhibitor concentration; mature PfPM1 pre-incubated in 100 mM sodium citrate pH 5.5, 37°C, 3 min; both purified.

No constants are given. Whether binding was seen depends on the method and setting.

Turning to KPYEFRQF [compound 1 (KPYEFΨRQF), peptidomimetic inhibitor designed for PbPM4], the binding result is listed as “no binding (tested: > 100,000 nM)”.
